# Results: patent US6458816B1, “Modified prodrug forms of AP/AMP” (Vion Pharmaceuticals, Inc., priority 2000, dated 2002)
# For at least one compound, name, drawing or mass did not settle the structure.
# Assay: Rising dose pharmacokinetic and toxicokinetic study in dogs with clinical observations
# Format: in vivo
# Details: dog, Triapine itself dosed at 3 mg/kg, separate study
# Experimental: Initially, both prodrugs were studied at a single dose of 7.5-7.7 mg/kg (equivalent to 3 mg/kg of Triapine).
# PK parameters of Triapine and the two prodrugs are presented in Tables 4 and 5 and are compared to those obtained, in a separate study, from administration of 3 mg/kg of Triapine (equivalent to approximately 7.5 mg/kg of prodrugs).
# Serum prodrug peak concentrations and AUCs, on the other hand, were not linear with dose, and appeared to be saturated at the doses investigated. Serum concentration-time profiles of prodrugs and Triapine are presented in attached FIGS. 4 and 5. […] The sustained serum Triapine levels were presumably attributable to the high serum levels of prodrugs as well as their low total body clearance.
# Treatment-related clinical observations were recorded for both dogs. […] These observations were not present on day 2. The only adverse clinical sign on day 2 was the absence of stool.
# Treatment-related clinical observations were recorded for the female treated at 80 mg/kg. […] In addition, the dog was pale (pallor), diarrhea was noted, and had yellow mucous in the stool. All observations were noted on day 1 and the dog was recovered on day 2.
smiles,measurement,setting,value
NC(=S)N/N=C/c1ncccc1N [3-AP (1A)],AUC,Table 5,124 mg·min/L
same,Cl,Table 5,1.8 mL/min/kg
same,Vss,Table 5,3.57 L/kg
same,T½ of Triapine,,1.8 h
